# Results: PubChem BioAssay (NCATS)
# The shares of active, inactive and inconclusive entries below differ from those in the screen. Potencies beside an inconclusive call are fits to weak or partial responses and may not hold up. The source made the active and inactive calls. The call rests on the fitted dose curve; in most records, active means well fitted cell-killing curve with a large enough effect; inconclusive means small, poorly fitted or top-dose-only effect, or effect the other way; inactive means flat fitted curve, though single readings scatter. Where a SMILES comes first, the peptide text is derived from it. The star is where a group is joined. Cbz = O=C(OCc1ccccc1)*
# Experiment: qHTS of pediatric cancer cell lines to identify multiple opportunities for drug repurposing: Confirmatory screen for control Hh wild type fibroblast cells (AID 1347121); further: nearly all actives have a fitted effect of over 70% in size
# Settings: viability qHTS; series mostly up to 45.9 µM
# Description: Drug repurposing or repositioning has been offered as a strategy for drug development in oncology programs. This approach has special potential for childhood cancers and other rare or orphan diseases, where the expected return on new drug development has been a disincentive to pharmaceuticals.
# In this project we exploit the poly-pharmacology of drugs to discover new indications via phenotypic screening of a panel of 19 well-characterized cell lines derived from solid tumors seen in children and adolescents. The goal is to identify approved drugs with previously unrecognized anticancer properties that has the potential to reveal new mechanisms and biological processes involved in carcinogenesis or drug resistance. We employed a titration-based paradigm (quantitative high-throughput screening or qHTS), where all compounds were tested at multiple concentrations for their effect on cell viability. Concentration-response curves (CRCs) were derived directly from the primary screen, and both potency and efficacy values were used to identify compounds with robust bioactivity profiles. We screened the NIH Chemical Genomics Center (NCGC) Pharmaceutical Collection (NPC) and Mechanism Interrogation Plate (MIPE) small molecule collections of approved and investigational compounds against these cell lines; and measured metabolically active cells after 48 hours of compound treatment as a proxy for cell viability.
# Assay Submitter: Nathalia J. Martinez, National Center for Advancing Translational Sciences, National Institutes of Health, Rockville, MD, USA; email: natalia.martinez@nih.gov
# [1] Shen, M et al. Quantitative high-throughput phenotypic screening of pediatric cancer cell lines identifies multiple opportunities for drug repurposing. Oncotarget 2017 Dec 19;9(4):4758-4772. PMID 29435139.
# The cells were obtained from University of North Carolina (UNC), Pediatric Preclinical Testing Program (PPT), and Coriell Institute (CI).
# qHTS cell viability assay:
# Cells were assayed in growth media at a density of 500-1,000 cells/well. Five microliters of cells were dispensed into 1,536-well, white, solid-bottom, TC-treated plates (Greiner Bio One) using a multidrop dispenser and incubated at 37 degrees C, 5% CO2, under a humidified atmosphere for 5 hours. Twenty-three nanoliters of compounds and controls (neutral control DMSO or positive control bortezomib at final concentration of 2.3 µM) were subsequently transferred by Kalypsys pintool. For primary screens, the MIPE collection was tested at 11-point dilutions (final concentrations range from 0.78 nM to 46 µM) and the NPC collection at 8-point dilutions (final concentrations range from 0.59 nM to 46 µM). Compounds tested in follow-up screens were assayed at 11-point dilutions. Cells were incubated for 48 hours, followed by addition of 3 µL of CellTiter-Glo (Promega). After a 15 min incubation at room temperature, samples were analyzed for luminescence intensity using a ViewLux High-throughput CCD imager equipped with clear filters.
# Potency means the concentration at half of the fitted maximal effect.
row,SMILES,Potency
1,COc1cccc2c1C(=O)c1c(O)c3c(c(O)c1C2=O)C[C@@](O)(C(C)=O)C[C@H]3O[C@H]1C[C@H](N)[C@H](O)[C@H](C)O1,"inconclusive: 2.08 µM [cytotoxic, full curve]"
2,COc1ccc(C[C@@H](C)[C@@H](C)Cc2ccc(OC)c(OC)c2)cc1OC,"inconclusive: 26.1 µM [cytotoxic, single point]"
3,CCN(CC)CC(=O)OCC(=O)[C@@]1(O)CC[C@H]2[C@@H]3CCC4=CC(=O)CC[C@]4(C)[C@H]3[C@@H](O)C[C@@]21C,inactive
4,CC(C)C[C@@H](C=O)NC(=O)[C@H](CC(C)C)NC(=O)[C@H](CC(C)C)NC(=O)OCc1ccccc1 (Cbz-Leu-Leu-Leu-aldehyde),active: 5.85 µM
5,CN/C(=C\[N+](=O)[O-])NCCSCc1ccc(CN(C)C)o1,"inconclusive: 0.0066 µM [rising, full curve, poor fit]"
6,O=C(Oc1cccc2cccnc12)c1ccccc1,inactive
7,CN(C)c1ccc(C(=O)NCCCCCCC(=O)NO)cc1,"inconclusive: 36.9 µM [cytotoxic, single point]"
8,Cc1ccc([N+](=O)[O-])cc1S(=O)(=O)N(C)N=Cc1cnc2ccc(Br)cn12,"inconclusive: 36.9 µM [cytotoxic, single point]"
9,CNC(=O)c1ccc(Nc2cc(Nc3ccccc3S(=O)(=O)C(C)C)c3cc[nH]c3n2)nc1,active: 13.1 µM
10,Cn1cc(CNCC2CCN(c3ncc(C(=O)NO)cn3)CC2)c2ccccc21,active: 1.31 µM
11,CNC(=O)c1c(F)cccc1Nc1nc(Nc2cc3c(cc2OC)CCN3C(=O)CN(C)C)nc2[nH]ccc12,"inconclusive: 32.9 µM [cytotoxic, single point]"
12,Cc1cc(N2CCOCC2)cc2[nH]c(-c3c(NC[C@@H](O)c4cccc(Cl)c4)cc[nH]c3=O)nc12,"inconclusive: 20.8 µM [cytotoxic, partial curve]"
13,COc1ccc(C(=O)c2ccccc2)c(O)c1,inactive
14,CCS(=O)(=O)c1cccc(-c2cc(C(=O)NC3CCN(C)CC3)c(C)c3[nH]c4ncc(C)cc4c23)c1,"inconclusive: 4.14 µM [cytotoxic, full curve]"
15,CNC(=O)Nc1ccc(-c2nc(N3CC4CCC(C3)O4)c3cnn(C4CCC5(CC4)OCCO5)c3n2)cc1,"inconclusive: 0.104 µM [cytotoxic, full curve]"
16,Cc1nc2ccc(CN(C)c3ccc(C(=O)N[C@@H](CCC(=O)O)C(=O)O)s3)cc2c(=O)[nH]1,"inconclusive: 0.0261 µM [rising, full curve, poor fit]"
17,CN(C)CCN(Cc1ccsc1)c1ccccn1,inactive
18,Cc1cc(Nc2ncc3c(n2)N(C)C(=O)N(c2cc(NC(=O)c4cccc(C(F)(F)F)c4)ccc2C)C3)n(C)n1,"inconclusive: 0.233 µM [cytotoxic, full curve]"
19,CC[C@@]1(O)C(=O)OCc2c1cc1n(c2=O)Cc2c-1nc1ccccc1c2/C=N/OC(C)(C)C,"inconclusive: 16.5 µM [cytotoxic, partial curve]"
20,CN1CCN(CCCN2c3ccccc3Sc3ccc(C(F)(F)F)cc32)CC1,"inconclusive: 26.1 µM [cytotoxic, single point]"

row,SMILES,Potency
1,Nc1ncnc2c1c(-c1cnc3[nH]ccc3c1)nn2C1CCCC1,"inconclusive: 0.928 µM [cytotoxic, full curve]"
2,CN(C)C(=O)Nc1ccc(Cl)c(Cl)c1,"inconclusive: 20.8 µM [cytotoxic, partial curve, poor fit]"
3,O=C1c2c(O)cccc2[C@@H]([C@@H]2O[C@H](CO)[C@@H](O)[C@H](O)[C@H]2O)c2cc(CO)cc(O)c21,inactive
4,C=CC(=O)Nc1cccc(Oc2nc(Nc3ccc(N4CCN(C)CC4)cc3)ncc2Cl)c1,active: 20.8 µM
5,CC[C@@]1([C@@H]2O[C@@H]([C@H]3O[C@@](O)(CO)[C@H](C)C[C@H]3C)C[C@H]2C)CC[C@H]([C@]2(C)CC[C@]3(C[C@H](O)[C@@H](C)[C@@H]([C@@H](C)[C@@H](OC)[C@H](C)C(=O)O)O3)O2)O1,"inconclusive: 8.11 µM [cytotoxic, partial curve]"
6,CC(C)=CCC/C(C)=C/CC/C(C)=C/C(=O)OCC(=O)[C@@]1(O)CC[C@H]2[C@@H]3CCC4=CC(=O)C=C[C@]4(C)[C@H]3[C@@H](O)C[C@@]21C,"inconclusive: 32.9 µM [cytotoxic, single point]"
7,CS(=O)(=O)N1CCc2c(-c3cnc(N)nc3)nc(N3CCOCC3)nc21,"inconclusive: 5.85 µM [cytotoxic, partial curve, poor fit]"
8,CC(C)N1[N]C(=C2C=c3cc(O)ccc3=N2)c2c(N)ncnc21,"inconclusive: 1.17 µM [cytotoxic, full curve]"
9,CC(C=CC1=C(C)CCCC1(C)C)=CC=CC(C)=CC(=O)Nc1ccc(O)cc1,"inconclusive: 75.9 µM [cytotoxic, single point]"
10,COC(=O)C1C2CC3c4[nH]c5cc(OC)ccc5c4CCN3CC2CC(OC(=O)c2cc(OC)c(OC)c(OC)c2)C1OC (stereo not given),inactive
11,CCn1cc(-c2ccnc3[nH]c(-c4cccc(CN(C)C)c4)cc23)c(-c2ccc(NC(=O)N(C)C)cc2)n1,"inconclusive: 14.7 µM [cytotoxic, partial curve]"
12,CC(=O)OCC(=O)[C@@]1(O)CC[C@H]2[C@@H]3CCC4=CC(=O)C=C[C@]4(C)[C@@]3(F)[C@@H](O)C[C@@]21C,"inconclusive: 11.7 µM [cytotoxic, partial curve, poor fit]"
13,C=CCNC1=C2C[C@@H](C)C[C@H](OC)[C@@H](O)[C@@H](C)C=C(C)[C@H](OC(N)=O)[C@@H](OC)C=CC=C(C)C(=O)NC(=CC1=O)C2=O,"inconclusive: 0.465 µM [cytotoxic, full curve, poor fit]"
14,O=C(Nc1ncc(-c2cc(C(F)F)nn2-c2c(Cl)cccc2Cl)s1)C1CC1,"inconclusive: 2.93 µM [cytotoxic, full curve]"
15,CC(=O)[C@H]1CC[C@H]2[C@@H]3CCC4=CC(=O)CC[C@]4(C)[C@H]3CC[C@]12C,"inconclusive: 29.3 µM [cytotoxic, single point]"
16,O=C(C=CC#Cc1cccc(NS(=O)(=O)c2ccccc2)c1)NO,"inconclusive: 18.5 µM [cytotoxic, partial curve]"
17,COC(=O)Nc1ccc(-c2nc(N3CCOCC3)c3cnn(C4CCN(Cc5cccnc5)CC4)c3n2)cc1,"inconclusive: 3.29 µM [cytotoxic, full curve, poor fit]"
18,CN(C)Cc1c(C(=O)NCCOc2ccc(C(=O)NO)cc2)oc2ccccc12,"inconclusive: 3.29 µM [cytotoxic, full curve]"
19,C[C@@H](Oc1ccc2[nH]nc(C=Cc3cnn(CCO)c3)c2c1)c1c(Cl)cncc1Cl,active: 13.1 µM
20,COC(=O)[C@@H]1[C@H]2C[C@@H]3c4[nH]c5ccccc5c4CCN3C[C@@H]2CC[C@@H]1O,"inconclusive: 0.0046 µM [rising, full curve, poor fit]"

# Of the compounds above, these have a nitro group on carbon:
row,SMILES,Potency
5,CN/C(=C\[N+](=O)[O-])NCCSCc1ccc(CN(C)C)o1,"inconclusive: 0.0066 µM [rising, full curve, poor fit]"
8,Cc1ccc([N+](=O)[O-])cc1S(=O)(=O)N(C)N=Cc1cnc2ccc(Br)cn12,"inconclusive: 36.9 µM [cytotoxic, single point]"
